Data as given in patent publication US20250084056A1, “SUBSTITUTED OXOISOINDOLINYL PIPERIDINE-2,6-DIONE COMPOUNDS” (BRISTOL-MYERS SQUIBB COMPANY, priority 2023, published 2025).
Some results were stated once for a whole list of compounds, not compound by compound.

By UniProt entry, the sequences of proteins in these tests, tags left out. Where a name states a change or a piece, a line headed by the entry shows the natural chain unless it says otherwise.
UniProt P24864, whole entry: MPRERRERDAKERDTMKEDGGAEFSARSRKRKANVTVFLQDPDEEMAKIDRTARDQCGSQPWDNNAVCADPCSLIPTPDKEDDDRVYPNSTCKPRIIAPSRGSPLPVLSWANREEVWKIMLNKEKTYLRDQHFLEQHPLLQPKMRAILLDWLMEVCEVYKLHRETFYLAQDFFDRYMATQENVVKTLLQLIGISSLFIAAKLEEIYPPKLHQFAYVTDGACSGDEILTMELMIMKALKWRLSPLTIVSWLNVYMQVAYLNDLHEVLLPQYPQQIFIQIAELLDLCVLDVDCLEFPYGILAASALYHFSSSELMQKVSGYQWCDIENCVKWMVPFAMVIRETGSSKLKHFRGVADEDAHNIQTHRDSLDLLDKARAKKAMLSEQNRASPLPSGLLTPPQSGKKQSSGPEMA
UniProt Q96SW2: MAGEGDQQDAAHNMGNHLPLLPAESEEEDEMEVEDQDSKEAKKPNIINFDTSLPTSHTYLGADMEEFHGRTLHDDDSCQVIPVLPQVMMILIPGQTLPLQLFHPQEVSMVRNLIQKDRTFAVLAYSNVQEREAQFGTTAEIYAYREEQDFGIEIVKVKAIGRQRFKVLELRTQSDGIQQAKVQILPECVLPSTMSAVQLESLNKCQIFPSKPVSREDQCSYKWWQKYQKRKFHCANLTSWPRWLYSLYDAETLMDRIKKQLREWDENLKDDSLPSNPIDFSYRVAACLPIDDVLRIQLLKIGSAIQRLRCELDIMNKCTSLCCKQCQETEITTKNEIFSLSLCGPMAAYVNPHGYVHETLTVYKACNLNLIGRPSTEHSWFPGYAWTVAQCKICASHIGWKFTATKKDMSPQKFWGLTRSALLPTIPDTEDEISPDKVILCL

These compounds were tested against Cyclin E1 (Homo sapiens, UniProt P24864+Q96SW2) (assay: Cyclin E1 Cellular Degradation Assay (MSD)). Details: degradation of Cyclin E1 over degradation of GSPT1, Table 18.
Type: cell-based
Set-up: endogenous in cells; host or cells: OVCAR3
Outline: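 OVCAR3 cells treated with compound for 24 h at 37 °C, lysed, and cyclin E1 measured by MSD sandwich immunoassay (rabbit capture, mouse detection anti-CCNE1). Reference degrader at […] defined 110% response; DC50 and Dmax derived from response.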

selectivity, ratio of GSPT1 DC50/Cyclin E1 DC50, at least 9:
COc1c(COC(=O)Nc2ccc(Oc3ccc(Cl)c(F)c3)cc2F)ccc2c1C(=O)N(C1CCC(=O)NC1=O)C2 (centres unmarked) [Example 91, [2-(2,6-dioxopiperidin-3-yl)-4-methoxy-3-oxo-2,3-dihydro-1H-isoindol-5-yl]methyl N-[4-(4-chloro-3-fluorophenoxy)-2-fluorophenyl]carbamate]
[2H]C([2H])([2H])c1ccccc1Oc1ccc(NC(=O)OCc2ccc3c(c2OC)C(=O)N(C2CCC(=O)NC2=O)C3)cc1 (centres unmarked) [Example 92, [2-(2,6-dioxopiperidin-3-yl)-4-methoxy-3-oxo-2,3-dihydro-1H-isoindol-5-yl]methyl N-{4-[2-(^2H3)methylphenoxy]phenyl}carbamate]
COc1cc(Oc2ccccc2)ccc1NC(=O)OCc1ccc2c(c1OC)C(=O)N(C1CCC(=O)NC1=O)C2 (centres unmarked) [Example 93, [2-(2,6-dioxopiperidin-3-yl)-4-methoxy-3-oxo-2,3-dihydro-1H-isoindol-5-yl]methyl N-(2-methoxy-4-phenoxyphenyl)carbamate]
COc1c(COC(=O)Nc2ccc(Oc3cc(F)c(F)cc3C)cc2F)ccc2c1C(=O)N(C1CCC(=O)NC1=O)C2 (centres unmarked) [Example 94, [2-(2,6-dioxopiperidin-3-yl)-4-methoxy-3-oxo-2,3-dihydro-1H-isoindol-5-yl]methyl N-[4-(4,5-difluoro-2-methylphenoxy)-2-fluorophenyl]carbamate]
COc1c(COC(=O)Nc2ccc(Oc3ccc(F)cc3C)cc2F)ccc2c1C(=O)N(C1CCC(=O)NC1=O)C2 (centres unmarked) [Example 95, [2-(2,6-dioxopiperidin-3-yl)-4-methoxy-3-oxo-2,3-dihydro-1H-isoindol-5-yl]methyl N-[2-fluoro-4-(4-fluoro-2-methylphenoxy)phenyl]carbamate]
COc1c(COC(=O)Nc2ccc(Oc3ccc(F)c(C)c3)cc2)ccc2c1C(=O)N(C1CCC(=O)NC1=O)C2 (centres unmarked) [Example 96, [2-(2,6-dioxopiperidin-3-yl)-4-methoxy-3-oxo-2,3-dihydro-1H-isoindol-5-yl]methyl N-[4-(4-fluoro-3-methylphenoxy)phenyl]carbamate]
COc1cc(Oc2ccc(F)c(C)c2)ccc1NC(=O)OCc1ccc2c(c1OC)C(=O)N(C1CCC(=O)NC1=O)C2 (centres unmarked) [Example 97, [2-(2,6-dioxopiperidin-3-yl)-4-methoxy-3-oxo-2,3-dihydro-1H-isoindol-5-yl]methyl N-[4-(4-fluoro-3-methylphenoxy)-2-methoxyphenyl]carbamate]
COc1c(COC(=O)Nc2ccc(Oc3ccc(F)c(Cl)c3)cc2F)ccc2c1C(=O)N(C1CCC(=O)NC1=O)C2 (centres unmarked) [Example 98, [2-(2,6-dioxopiperidin-3-yl)-4-methoxy-3-oxo-2,3-dihydro-1H-isoindol-5-yl]methyl N-[4-(3-chloro-4-fluorophenoxy)-2-fluorophenyl]carbamate]
COc1c(COC(=O)Nc2ccc(Oc3ccc(F)c(C)c3)cc2F)ccc2c1C(=O)N(C1CCC(=O)NC1=O)C2 (centres unmarked) [Example 99, [2-(2,6-dioxopiperidin-3-yl)-4-methoxy-3-oxo-2,3-dihydro-1H-isoindol-5-yl]methyl N-[2-fluoro-4-(4-fluoro-3-methylphenoxy)phenyl]carbamate]
COc1cc(Oc2ccc(F)c(Cl)c2)ccc1NC(=O)OCc1ccc2c(c1OC)C(=O)N(C1CCC(=O)NC1=O)C2 (centres unmarked) [Example 100, [2-(2,6-dioxopiperidin-3-yl)-4-methoxy-3-oxo-2,3-dihydro-1H-isoindol-5-yl]methyl N-[4-(3-chloro-4-fluorophenoxy)-2-methoxyphenyl]carbamate]
COc1c(COC(=O)Nc2ccc(Oc3ccccc3C)cc2)ccc2c1C(=O)N(C1CCC(=O)NC1=O)C2 (centres unmarked) [Example 101, [2-(2,6-dioxopiperidin-3-yl)-4-methoxy-3-oxo-2,3-dihydro-1H-isoindol-5-yl]methyl N-[4-(2-methylphenoxy)phenyl]carbamate]
COc1c(COC(=O)Nc2ccc(Oc3ccc(F)cc3Cl)cc2)ccc2c1C(=O)N(C1CCC(=O)NC1=O)C2 (centres unmarked) [Example 102, [2-(2,6-dioxopiperidin-3-yl)-4-methoxy-3-oxo-2,3-dihydro-1H-isoindol-5-yl]methyl N-[4-(2-chloro-4-fluorophenoxy)phenyl]carbamate]
COc1c(COC(=O)Nc2ccc(Oc3ccc(F)cc3Cl)cc2C)ccc2c1C(=O)N(C1CCC(=O)NC1=O)C2 (centres unmarked) [Example 103, [2-(2,6-dioxopiperidin-3-yl)-4-methoxy-3-oxo-2,3-dihydro-1H-isoindol-5-yl]methyl N-[4-(2-chloro-4-fluorophenoxy)-2-methylphenyl]carbamate]
COc1cc(Oc2ccc(F)cc2Cl)ccc1NC(=O)OCc1ccc2c(c1OC)C(=O)N(C1CCC(=O)NC1=O)C2 (centres unmarked) [Example 104, [2-(2,6-dioxopiperidin-3-yl)-4-methoxy-3-oxo-2,3-dihydro-1H-isoindol-5-yl]methyl N-[4-(2-chloro-4-fluorophenoxy)-2-methoxyphenyl]carbamate]
COc1c(COC(=O)Nc2ccc(Oc3ccc(F)cc3Cl)cc2F)ccc2c1C(=O)N(C1CCC(=O)NC1=O)C2 (centres unmarked) [Example 105, [2-(2,6-dioxopiperidin-3-yl)-4-methoxy-3-oxo-2,3-dihydro-1H-isoindol-5-yl]methyl N-[4-(2-chloro-4-fluorophenoxy)-2-fluorophenyl]carbamate]
COc1c(COC(=O)Nc2ccc(Oc3cc(F)ccc3Cl)cc2)ccc2c1C(=O)N(C1CCC(=O)NC1=O)C2 (centres unmarked) [Example 106, [2-(2,6-dioxopiperidin-3-yl)-4-methoxy-3-oxo-2,3-dihydro-1H-isoindol-5-yl]methyl N-[4-(2-chloro-5-fluorophenoxy)phenyl]carbamate]
COc1c(COC(=O)Nc2ccc(Oc3ccccc3Cl)cc2F)ccc2c1C(=O)N(C1CCC(=O)NC1=O)C2 (centres unmarked) [Example 107, [2-(2,6-dioxopiperidin-3-yl)-4-methoxy-3-oxo-2,3-dihydro-1H-isoindol-5-yl]methyl N-[4-(2-chlorophenoxy)-2-fluorophenyl]carbamate]
COc1cc(Oc2cc(F)c(F)cc2Cl)ccc1NC(=O)OCc1ccc2c(c1OC)C(=O)N(C1CCC(=O)NC1=O)C2 (centres unmarked) [Example 108, [2-(2,6-dioxopiperidin-3-yl)-4-methoxy-3-oxo-2,3-dihydro-1H-isoindol-5-yl]methyl N-[4-(2-chloro-4,5-difluorophenoxy)-2-methoxyphenyl]carbamate]
COc1c(COC(=O)Nc2ccc(Oc3cc(F)c(F)cc3Cl)cc2F)ccc2c1C(=O)N(C1CCC(=O)NC1=O)C2 (centres unmarked) [Example 109, [2-(2,6-dioxopiperidin-3-yl)-4-methoxy-3-oxo-2,3-dihydro-1H-isoindol-5-yl]methyl N-[4-(2-chloro-4,5-difluorophenoxy)-2-fluorophenyl]carbamate]
COc1c(COC(=O)Nc2ccc(Oc3cccc(F)c3F)cc2)ccc2c1C(=O)N(C1CCC(=O)NC1=O)C2 (centres unmarked) [Example 110, [2-(2,6-dioxopiperidin-3-yl)-4-methoxy-3-oxo-2,3-dihydro-1H-isoindol-5-yl]methyl N-[4-(2,3-difluorophenoxy)phenyl]carbamate]
COc1c(COC(=O)Nc2ccc(Oc3cccc(F)c3Cl)cc2)ccc2c1C(=O)N(C1CCC(=O)NC1=O)C2 (centres unmarked) [Example 111, [2-(2,6-dioxopiperidin-3-yl)-4-methoxy-3-oxo-2,3-dihydro-1H-isoindol-5-yl]methyl N-[4-(2-chloro-3-fluorophenoxy)phenyl]carbamate]
COc1c(COC(=O)Nc2ccc(Oc3c(F)cccc3F)cc2)ccc2c1C(=O)N(C1CCC(=O)NC1=O)C2 (centres unmarked) [Example 112, [2-(2,6-dioxopiperidin-3-yl)-4-methoxy-3-oxo-2,3-dihydro-1H-isoindol-5-yl]methyl N-[4-(2,6-difluorophenoxy)phenyl]carbamate]
COc1c(COC(=O)Nc2ccc(Oc3cccc4ccccc34)cc2)ccc2c1C(=O)N(C1CCC(=O)NC1=O)C2 (centres unmarked) [Example 113, [2-(2,6-dioxopiperidin-3-yl)-4-methoxy-3-oxo-2,3-dihydro-1H-isoindol-5-yl]methyl N-[4-(naphthalen-1-yloxy)phenyl]carbamate]
COc1c(COC(=O)Nc2ccc(Oc3ccc4sccc4c3)cc2)ccc2c1C(=O)N(C1CCC(=O)NC1=O)C2 (centres unmarked) [Example 114, [2-(2,6-dioxopiperidin-3-yl)-4-methoxy-3-oxo-2,3-dihydro-1H-isoindol-5-yl]methyl N-[4-(1-benzothiophen-5-yloxy)phenyl]carbamate]
COc1c(COC(=O)Nc2ccc(Oc3ccc4ccsc4c3)cc2)ccc2c1C(=O)N(C1CCC(=O)NC1=O)C2 (centres unmarked) [Example 115, [2-(2,6-dioxopiperidin-3-yl)-4-methoxy-3-oxo-2,3-dihydro-1H-isoindol-5-yl]methyl N-[4-(1-benzothiophen-6-yloxy)phenyl]carbamate]
COc1c(COC(=O)Nc2ccc(Oc3cccc(Cl)c3Cl)cc2F)ccc2c1C(=O)N(C1CCC(=O)NC1=O)C2 (centres unmarked) [Example 116, [2-(2,6-dioxopiperidin-3-yl)-4-methoxy-3-oxo-2,3-dihydro-1H-isoindol-5-yl]methyl N-[4-(2,3-dichlorophenoxy)-2-fluorophenyl]carbamate]
